The campaign covered roughly 320,000 compounds. About 22,000 (6.9%) were called active. Inconclusive results, whose numbers are uncertain, are shown with a selection of clear calls. Calls follow the shape of the dose curve; as a rule, active = well fitted inhibition curve with a large enough effect; inconclusive = small, poorly fitted or top-dose-only effect, or another doubt; inactive = no such curve, though single readings can be large or run the other way. Potencies of inconclusive entries are doubtful fits and often do not repeat.
Assay: Primary qHTS for delayed death inhibitors of the malarial parasite plastid, 96 hour incubation
Conditions: P. falciparum luciferase reporter growth; series mostly up to 28.7 µM; activity change, negative = inhibition: at the top concentration
Summary of the method: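 Plates of compound plus infected erythrocytes (2% hematocrit, 0.05% parasitemia final) incubate 96 hours, 37 C, 5% CO2. Detection reagent added; reduced luminescence from the parasites' luciferase reporter flags inhibition.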
% is scaled to controls: 0 for no effect and ±100 for the full control effect; potency is read from the fitted curve at half-maximal effect.

SMILES | Potency | activity change, negative = inhibition
COc1ccc(-n2c(O)c(/C=N/NS(=O)(=O)c3ccc(C)cc3)c3ccccc3c2=O)cc1OC | inconclusive: 14.7 µM [inhibitor, single point] | 
O=S1(=O)N=C(Nc2ccc(N3CCOCC3)cc2)c2ccccc21 |  | inactive: 47.7%
CCOC(=O)c1cnn(Cc2cccc(Cl)c2)c1C | inconclusive: 0.928 µM [inhibitor, partial curve, poor fit] | 
CN(C)c1ccc(/C=C/C#N)cc1 |  | inactive: 10.3%
COc1cc(C(=O)Nc2ccc(NC(=O)C3CCCCC3)nc2)cc(OC)c1OC | inconclusive: 8.28 µM [inhibitor, partial curve] | 
O=C(COC(=O)C1CC(=O)N(Cc2ccccc2)C1)c1ccc(Br)cc1 (stereo not drawn) |  | inactive: 16.3%
CCn1cc([N+](=O)[O-])c(C(=O)N2CCCc3ccccc32)n1 |  | inactive: 33.2%
COc1ccc(C)cc1NC(=S)N1CCN(S(C)(=O)=O)CC1 |  | inactive: -14.2%
CC(C)(C)c1ccc(Cn2cnc(-c3ccc([N+](=O)[O-])cc3)c2)cc1 | inconclusive: 18.5 µM [inhibitor, single point] | 
Cc1ccc(SCCc2cc[n+](CC(=O)c3ccccc3)cc2)cc1 | inconclusive: 5.22 µM [inhibitor, single point] | 
O=C(Cc1ccccc1)NCCSCc1ccco1 |  | inactive: 90.8%
COc1ccccc1CCC(=O)Oc1ccc(C#N)cc1OC | inconclusive: 18.5 µM [inhibitor, single point] | 
CN(Cc1ccccc1)C(=O)COc1ccc(N(C)S(=O)(=O)c2ccc(F)cc2)cc1 | inconclusive: 10.4 µM [inhibitor, partial curve] | 
Cn1c(N2CCCC2)nc2c1c(=O)n(Cc1ccc(F)cc1)c(=O)n2C | inconclusive: 0.586 µM [inhibitor, full curve, poor fit] | 
CCCn1nnnc1NCc1ccccc1F | inconclusive: 18.5 µM [inhibitor, single point] | 
CN(CC(=O)Nc1ccc(Cl)c(C(F)(F)F)c1)C(=O)CCc1nc2ccccc2c(=O)[nH]1 | inconclusive: 5.22 µM [inhibitor, partial curve] | 
O=C(CN1CC[C@@]2(O)CCCC[C@H]2[C@@H]1c1ccc(F)cc1)NCc1ccco1 | inconclusive: 5.86 µM [inhibitor, partial curve, poor fit] | 
CCC(C)N1CCN(S(=O)(=O)Cc2ccccc2)CC1 (stereo not drawn) | inconclusive: 9.28 µM [inhibitor, partial curve] | 
O=C(Nc1ccccc1)N1CCC2(CC1)OCCO2 | inconclusive: 10.4 µM [inhibitor, partial curve] | 
COc1ccc(-c2[nH]ncc2CNC(C)CCn2cccn2)c(F)c1 (stereo not drawn) | inconclusive: 18.5 µM [inhibitor, single point] | 
Clc1ccc(N2CCN(/N=C/c3ccncc3)CC2)cc1 | inconclusive: 1.31 µM [inhibitor, partial curve, poor fit] | 
CCOc1ccccc1NC(=O)Nc1ccsc1C(=O)OC | inconclusive: 14.7 µM [inhibitor, single point] | 

SMILES | Potency | activity change, negative = inhibition
CC(=O)c1cccc(NC(=O)COc2nsnc2N2CCOCC2)c1 | inconclusive: 4.65 µM [inhibitor, partial curve, poor fit] | 
O=C(N/N=C/c1ccc(OC(=O)c2ccccc2Cl)cc1)c1cc(O)cc(O)c1 | inconclusive: 9.28 µM [inhibitor, partial curve, poor fit] | 
COCCN(C(=O)COC(=O)CSc1ccc2ccccc2c1)c1c(N)n(Cc2ccccc2)c(=O)[nH]c1=O |  | inactive: 2.41%
O=[N+]([O-])c1ccn(-c2nc(-c3ccccc3)cc(C(F)(F)F)n2)n1 | inconclusive: 18.5 µM [inhibitor, single point] | 
COc1ccc(CN2CC(C(=O)NC3CCCCC3)CC2=O)cc1 (stereo not drawn) |  | inactive: 23.7%
CCCC(C)C(=O)Nc1nnc(CCc2ccccc2)s1 (stereo not drawn) | inconclusive: 18.5 µM [inhibitor, single point] | 
Cc1ccc(C)c(NC(=O)c2cc(=O)c3ccccc3o2)c1 | active: 13.1 µM | 
CC(=O)c1ccc(N2CCN(C(=S)Nc3cccc(Cl)c3)CC2)cc1 | inconclusive: 18.5 µM [inhibitor, single point] | 
COc1ccc(CN2C=C3C(=O)C(C)(OC(=O)CCc4ccccc4)C(=O)C=C3C=C2c2ccc(C#N)cc2)cc1 (stereo not drawn) | inconclusive: 13.1 µM [inhibitor, single point] | 
Cn1cc(S(=O)(=O)NCc2ccc(F)cc2)c(=O)n(C)c1=O | inconclusive: 8.28 µM [inhibitor, partial curve, poor fit] | 
Fc1ccc(C(CCNCc2cccs2)c2ccco2)cc1 (stereo not drawn) | inconclusive: 18.5 µM [inhibitor, single point] | 
CC(=O)c1ccc(NS(=O)(=O)c2ccc(CC(C)C)cc2)cc1 | inconclusive: 18.5 µM [inhibitor, single point] | 
Cc1cc(Br)c2c(c1)C1(OCCO1)C(=O)N2 | inconclusive: 18.5 µM [inhibitor, single point] | 
C=CCNc1nc(-c2ccc(OC)cc2OC)cs1 | inconclusive: 18.5 µM [inhibitor, single point] | 
Cc1cc(/C=C2/C(=O)NN(c3ccccc3)C2=O)c(C)n1-c1ccc(O)cc1 |  | inactive: 22.6%
COC(=O)c1ccccc1NC(=O)N1CCc2ccc(NC(=O)c3ccccn3)cc2C1 | inconclusive: 10.4 µM [inhibitor, single point] | 
Cc1ccc(SC[C@H](C)CN2CC[C@H](C(C)(C)C)CCC2=O)cc1 | inconclusive: 16.5 µM [inhibitor, single point] | 
COc1cc(C2C(C(=O)c3ccco3)=C(O)C(=O)N2c2cc(C)on2)cc(Br)c1O (stereo not drawn) | inconclusive: 1.85 µM [inhibitor, full curve] | 
Cc1ccc(C(=O)O/N=C(\c2ccccc2)c2ccncc2)cc1 | inconclusive: 11.7 µM [inhibitor, single point] | 
O=C(NCc1cccs1)c1cc(S(=O)(=O)N2CCCCC2)ccc1Cl | inconclusive: 18.5 µM [inhibitor, single point] | 
Cn1cc(Br)c(C(=O)NNC(=O)c2ccccc2)n1 | inconclusive: 16.5 µM [inhibitor, single point] | 

3 entries from above, as labelled records:
Cn1cc(S(=O)(=O)NCc2ccc(F)cc2)c(=O)n(C)c1=O
  Potency: inconclusive: 8.28 µM [inhibitor, partial curve, poor fit]
Fc1ccc(C(CCNCc2cccs2)c2ccco2)cc1 (stereo not drawn)
  Potency: inconclusive: 18.5 µM [inhibitor, single point]
CC(=O)c1ccc(NS(=O)(=O)c2ccc(CC(C)C)cc2)cc1
  Potency: inconclusive: 18.5 µM [inhibitor, single point]

From PubChem BioAssay AID504834 (National Center for Advancing Translational Sciences (NCATS), 2011)
